Test results: patent publication US7279548
No constants are given. Whether binding was seen depends on the method and setting. Some binding calls cover weakened binding; strength is not graded here.

Sequences of proteins named here, by UniProt entry; tags and fusion partners are left off. A change or cut given only in a name is not applied to a line headed by its entry.
UniProt P51795: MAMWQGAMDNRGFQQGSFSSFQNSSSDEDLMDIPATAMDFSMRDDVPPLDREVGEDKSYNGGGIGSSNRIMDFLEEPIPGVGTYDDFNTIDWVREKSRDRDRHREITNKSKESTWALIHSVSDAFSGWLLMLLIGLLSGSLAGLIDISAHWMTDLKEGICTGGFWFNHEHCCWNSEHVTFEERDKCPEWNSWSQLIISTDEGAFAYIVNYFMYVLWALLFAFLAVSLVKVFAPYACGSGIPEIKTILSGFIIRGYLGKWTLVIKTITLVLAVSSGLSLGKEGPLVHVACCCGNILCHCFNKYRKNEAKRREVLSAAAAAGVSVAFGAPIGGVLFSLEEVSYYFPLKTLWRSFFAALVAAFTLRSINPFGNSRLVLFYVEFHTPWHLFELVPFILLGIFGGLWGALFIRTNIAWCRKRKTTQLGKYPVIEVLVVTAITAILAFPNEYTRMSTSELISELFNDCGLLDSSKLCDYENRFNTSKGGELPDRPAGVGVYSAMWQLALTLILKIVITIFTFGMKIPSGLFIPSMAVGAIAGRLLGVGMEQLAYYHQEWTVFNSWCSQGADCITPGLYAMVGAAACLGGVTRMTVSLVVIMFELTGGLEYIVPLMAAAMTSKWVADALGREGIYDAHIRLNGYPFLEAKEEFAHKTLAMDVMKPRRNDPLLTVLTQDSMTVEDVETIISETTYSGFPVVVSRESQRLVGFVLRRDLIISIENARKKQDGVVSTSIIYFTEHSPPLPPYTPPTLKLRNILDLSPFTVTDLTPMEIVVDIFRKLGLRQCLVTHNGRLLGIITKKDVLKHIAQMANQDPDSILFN

Columns and labels:
[1] = target: WWP1.4 WW domain expressed as GST fusion protein (human); experiment: ELISA cross affinity mapping, GST-WW fusion
[2] = target: WWP2.4 WW domain expressed as GST fusion protein (human); experiment: ELISA cross affinity mapping, GST-WW fusion

B1: renal chloride channel CLCN5 peptide (peptide, UniProt P51795 736-745, looked up)
peptide: SPPLPPYTPP
modifications: biotinylated
With B1 the binding [1] was “binds” and the binding [2] was “binds”.
